Test results from PMC6356275.
No constants are given. Whether binding was seen depends on the method and setting. In cells and extracts the contact can be indirect. Tags and fused reporters may be left off the sequences shown.

Sequences of proteins named here, by UniProt entry; tags and fusion partners are left off.
UniProt P08362: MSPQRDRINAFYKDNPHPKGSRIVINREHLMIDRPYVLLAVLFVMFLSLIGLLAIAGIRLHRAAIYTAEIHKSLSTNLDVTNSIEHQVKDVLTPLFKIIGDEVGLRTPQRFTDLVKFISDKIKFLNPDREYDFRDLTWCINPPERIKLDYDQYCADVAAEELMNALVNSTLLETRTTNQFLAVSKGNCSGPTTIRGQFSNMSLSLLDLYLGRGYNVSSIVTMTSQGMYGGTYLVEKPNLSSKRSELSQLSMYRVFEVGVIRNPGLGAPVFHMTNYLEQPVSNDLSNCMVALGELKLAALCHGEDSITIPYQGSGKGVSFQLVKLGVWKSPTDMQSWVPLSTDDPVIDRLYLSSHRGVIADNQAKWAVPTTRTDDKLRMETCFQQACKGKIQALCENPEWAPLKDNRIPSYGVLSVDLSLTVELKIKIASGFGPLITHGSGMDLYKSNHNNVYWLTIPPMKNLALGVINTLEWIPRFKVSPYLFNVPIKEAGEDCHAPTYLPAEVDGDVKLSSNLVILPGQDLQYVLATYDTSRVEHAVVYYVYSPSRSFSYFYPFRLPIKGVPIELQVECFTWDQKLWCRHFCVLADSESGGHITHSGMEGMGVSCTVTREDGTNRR

Biological target: T1, KDELR2-Flag (human KDELR2, ER protein retention receptor) (human) (UniProt P33947)
T1 sequence: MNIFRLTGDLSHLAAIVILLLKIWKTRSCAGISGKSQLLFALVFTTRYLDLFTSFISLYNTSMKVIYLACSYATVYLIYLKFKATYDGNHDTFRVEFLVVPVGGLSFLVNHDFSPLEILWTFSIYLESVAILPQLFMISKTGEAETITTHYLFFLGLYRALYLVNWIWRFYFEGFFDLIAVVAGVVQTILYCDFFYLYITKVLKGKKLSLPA
Assay: co-IP

measles virus hemagglutinin (H) protein (from UniProt P08362 1-617)
binding: no binding
